Results: PubChem BioAssay AID1688 (National Center for Advancing Translational Sciences (NCATS), 2009)
About 2,400 (1.1%) of roughly 220,000 compounds were called active. Inconclusive results, whose numbers are uncertain, are shown with a selection of clear calls. Calls follow the shape of the dose curve; as a rule, active = well fitted inhibition curve with a large enough effect; inconclusive = small, poorly fitted or top-dose-only effect, or effect the other way; inactive = no such curve, though single readings can be large or run the other way. A potency beside an inconclusive call is a rough fit, not a confirmed value.

experiment: qHTS Multiplex Assay to Identify Dual Action Probes in a Cell Model of Huntington: Aggregate Formation (GFP); settings: PC12 HttQ103-GFP aggregates, Acumen cytometry, 40 h; activity change, negative = inhibition: at 46.1 µM (top of the series) unless noted; also: nearly all actives have a fitted effect of over 60% in size
Outline: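 Steps: seed 1500 PC12 HTTQ103-GFP cells/well; add tebufenozide, 100 nM final; add compound titration; add ATPLite reagent; quantify GFP aggregates by laser scanning cytometry.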
% is scaled to controls: 0 for no effect and ±100 for the full control effect; potency is read from the fitted curve at half-maximal effect.

| Structure (SMILES) | activity change, negative = inhibition | Potency |
| --- | --- | --- |
| CN1CCN(CC(=O)NC23CC4CC(CC(C4)C2)C3)CC1 | inactive: 3.54% [at 9.22 µM] |  |
| Cc1onc(-c2ccccc2)c1NC(=O)Nc1ccc(OC(F)F)cc1 | inactive: -13.7% [at 9.22 µM] |  |
| CCc1cc(SC#N)cc(C)c1N |  | inconclusive: 11.2 µM [activator, partial curve] |
| Cc1ccc(-c2c[n+](CC(=O)Nc3nc(-c4ccc(F)cc4)cs3)c3n2CCC3)cc1 |  | inconclusive: 31.6 µM [inhibitor, single point] |
| CCNC(=S)NNC(=O)c1ccccn1 |  | inconclusive: 2.24 µM [inhibitor, single point] |
| CCOC(=O)c1nnn(CC(=O)N2N=C(c3ccc(Cl)cc3)CC2c2ccc(OC)cc2)c1C(=O)OCC (stereo not drawn) | inactive: -0.849% |  |
| Cc1cc(C)cc(C(=O)NC(=S)Nc2ccc3c(c2)OCCO3)c1 | inactive: 24.4% |  |
| O=C(CN1CCOCC1)Nc1cc([N+](=O)[O-])ccc1Cl | inactive: -5.33% |  |
| COc1cc(/C=N/NC(=S)NCc2ccccc2)ccc1OCC#N |  | inconclusive: 10 µM [activator, partial curve] |
| Cc1cc(C(=O)CSc2nc3ccccc3o2)c(C)n1CC1CCCO1 (stereo not drawn) |  | inconclusive: 8.91 µM [inhibitor, partial curve] |
| CCCc1nc(-c2ccc(-c3ccc(F)cc3)cc2)no1 |  | inconclusive: 8.91 µM [inhibitor, single point] |
| O=C(NCCO)c1ccc(Cl)c(Cl)c1 |  | inconclusive: 0.282 µM [inhibitor, partial curve] |
| COc1ccc(C(=O)C2CCN(C(=S)Nc3ccc(F)cc3)CC2)cc1 | inactive: -31.6% |  |
| NC1=NS(=O)(=O)NC1c1ccc(F)cc1 (stereo not drawn) | inactive: -2.59% |  |
| CC1(C)CC(=O)C2=C(C1)NC(=O)CC2c1ccc(N(CCC#N)CCC#N)cc1 (stereo not drawn) |  | inconclusive: 0.1 µM [activator, partial curve, poor fit] |
| CC(C)Nc1nnc(SCC(=O)Nc2ccc3c(c2)C(=O)c2ccccc2C3=O)s1 |  | inconclusive: 20 µM [inhibitor, single point] |
| COc1cccc(C2CC(c3ccc(Br)cc3)=NN2C(=O)c2ccncc2)c1OC (stereo not drawn) |  | inconclusive: 8.91 µM [inhibitor, partial curve, poor fit] |
| C/C(=N/NC(=O)c1cc(-c2cccc([N+](=O)[O-])c2)n[nH]1)c1ccc(Cl)cc1 |  | inconclusive: 22.4 µM [activator, single point] |
| Oc1ccc2ccccc2c1/C=N/Nc1ccccc1 |  | inconclusive: 11.2 µM [activator, partial curve, poor fit] |
| Cc1cccc(N2CCN(C(=O)CCCSc3nc4ccccc4[nH]3)CC2)c1C |  | inconclusive: 11.2 µM [inhibitor, partial curve] |
| O=C(Nc1ccc(Cl)cc1)OCCn1nnnc1C(c1ccccc1Cl)N1CCOCC1 (stereo not drawn) | inactive: -23% |  |
| COc1ccc(Oc2cnc3ccccc3n2)cc1 |  | active: 11.2 µM |
| O=C(NC(=S)NCc1nc2ccccc2[nH]1)c1ccc(F)cc1 |  | inconclusive: 20 µM [activator, single point] |
| CCCc1cc(-n2ccnc2)n2c(nc3ccccc32)c1C#N |  | inconclusive: 11.2 µM [activator, partial curve] |
| Cc1ccc(-n2cc(CNC(C)c3cnn(C)c3)c(-c3ccc(F)cc3)n2)cc1 (stereo not drawn) | inactive: 2.54% [at 9.22 µM] |  |

| Structure (SMILES) | activity change, negative = inhibition | Potency |
| --- | --- | --- |
| CS(=O)(=O)Nc1ccc(C(=O)NC2CC3CCC2C3)cc1 (stereo not drawn) |  | inconclusive: 20 µM [activator, partial curve] |
| COc1ccc(C(=O)N(Cc2nc(-c3ccc(C)cc3)no2)C2CCCCC2)cc1OC |  | inconclusive: 15.8 µM [inhibitor, single point] |
| N#CC1=C(SCC(=O)c2ccc(Br)cc2)NC2=C(C(=O)CCC2)C1c1ccco1 (stereo not drawn) | inactive: 4.34% |  |
| O=C(NC1CCCCCCC1)c1ccccc1O |  | inconclusive: 12.6 µM [inhibitor, partial curve] |
| CCC1CCCCN1S(=O)(=O)c1ccc(C(=O)Nc2nnc(-c3cccs3)o2)cc1 (stereo not drawn) |  | active: 11.2 µM |
| O=C(NNc1nc(=O)c2cccnc2s1)c1ccccc1O |  | active: 7.94 µM |
| Cc1cc(NC(=O)CSc2nncn2-c2ccccc2)no1 | inactive: -8.2% |  |
| CCc1nnc(NC(=O)CSc2nc3ccccc3s2)s1 | inactive: -4.26% |  |
| CNC(=S)c1cc(C(C)(C)C)c(O)c(C(C)(C)C)c1 | inactive: -11% [at 9.22 µM] |  |
| Cn1cc(-c2nc3ccccc3[nH]2)c2ccccc21 |  | inconclusive: 0.0891 µM [inhibitor, full curve] |
| N#CC1=C(N)C(C#N)(C#N)C(c2cccnc2)C2CC(c3ccccc3)CC=C12 (stereo not drawn) |  | inconclusive: 1.41 µM [inhibitor, partial curve, poor fit] |
| Cc1cc(Nc2ccccc2)c2c([N+](=O)[O-])cc(C)c(C)c2n1 |  | inconclusive: 1.26 µM [activator, single point] |
| O=C(O)c1cccnc1SC1CC(=O)N(c2cccc(C(F)(F)F)c2)C1=O (stereo not drawn) |  | inconclusive: 0.0355 µM [inhibitor, full curve, poor fit] |
| COc1ccccc1C1(CC(=O)N2CCCCC2)CCOC(C(C)C)C1 (stereo not drawn) | inactive: -15.5% |  |
| C=CCSC1=C(C#N)C(c2ccc(OCC)cc2)CC(=O)N1 (stereo not drawn) | inactive: 5.43% |  |
| N#CC1=C(N)N2C(=C(C#N)C1c1ccc(Br)cc1)Nc1ccccc12 (stereo not drawn) |  | inconclusive: 2.24 µM [inhibitor, partial curve, poor fit] |
| Cc1nc2ccccc2n1CC(O)COc1ccccc1Cl (stereo not drawn) |  | inconclusive: 12.6 µM [inhibitor, single point] |
| CCN1CCN(C(=O)C2CCN(C(=O)c3cc4sccc4n3CC)CC2)CC1 | inactive: -4.69% |  |
| S=c1nc(-c2cc(Cl)cc(Cl)c2)[nH][nH]1 | inactive: -3.76% [at 9.22 µM] |  |
| Cc1c(C(C)C)c(=O)n(-c2ccc(S(=O)(=O)NC3CCCCC3)cc2)n1C |  | inconclusive: 5.62 µM [inhibitor, full curve] |
| Cc1cc(NC(=O)CN2CCN(Cc3ccccc3)CC2)nc2c1c(=O)oc1ccccc12 | inactive: 5.52% [at 9.22 µM] |  |
| CCOc1cccc(/C=N/Nc2ccc(S(=O)(=O)N(CC)CC)cn2)c1O |  | active: 1.41 µM |
| Cc1ccc(NC(=O)Cc2nnc(SCC(=O)c3ccc(Br)cc3)n2C)cc1Cl |  | inconclusive: 10 µM [activator, partial curve] |
| Cc1sc2ncnc(SCC(=O)NC(C)(C)C)c2c1C | inactive: 1.13% [at 9.22 µM] |  |
| Cc1nn(-c2ccccc2)c(N)c1N=Nc1ccc(Cl)cc1 |  | active: 3.55 µM |

| Structure (SMILES) | activity change, negative = inhibition | Potency |
| --- | --- | --- |
| CCc1ccc(C(=O)/C=C/c2ccc([N+](=O)[O-])o2)cc1 |  | inconclusive: 14.1 µM [inhibitor, single point] |
| Cc1cc(C)c(NC(=O)CSc2nc3c(c(=O)n2C)SC(C)C3)c(C)c1 (stereo not drawn) |  | inconclusive: 10 µM [inhibitor, partial curve] |
| COC(=O)c1ccc(Cc2ccccc2)o1 |  | active: 0.0004 µM |
| O=[N+]([O-])c1ccc(N/N=C2\CC3CC=CC23)c([N+](=O)[O-])c1 (stereo not drawn) |  | inconclusive: 10 µM [inhibitor, partial curve] |
| N#CC1(Cc2ccccc2)c2ccccc2C=CN1C(=O)c1ccccc1 (stereo not drawn) |  | inconclusive: 22.4 µM [inhibitor, single point] |
| CC(C)Nc1ncnc2c1cnn2-c1ccccc1 | inactive: -1.17% |  |
| COc1ccc(OC)c(-n2c(SC)nnc2-c2c[nH]c3ccccc23)c1 | inactive: 12% |  |
| CCOc1ccccc1-c1nnc(SCC(=O)NC2CC3CCC2C3)n1CC (stereo not drawn) |  | inconclusive: 1 µM [activator, single point] |
| CC(C)CCNC(=O)CCCn1c(=O)[nH]c2ccc(Br)cc2c1=O |  | inconclusive: 10 µM [activator, partial curve, poor fit] |
| Cc1ccc(OCC(=O)NC(=S)Nc2cccc(NC(=O)c3ccccc3Cl)c2)cc1 |  | inconclusive: 35.5 µM [activator, single point] |
| Cc1ccc2c(c1)CCCN2C(=O)c1ccco1 |  | active: 2.51 µM |
| CCN(CC)CCn1c(NCc2ccc(C)o2)nc2ccccc21 |  | inconclusive: 1.12 µM [activator, full curve, poor fit] |
| COc1ccccc1OCC(=O)c1[nH]c(C)c(C(C)=O)c1C |  | inconclusive: 10 µM [inhibitor, partial curve] |
| CCCCN(C)CCCNC(=O)c1cn(CC)c2ccc(S(=O)(=O)N3CCc4ccccc4C3)cc2c1=O |  | inconclusive: 12.6 µM [inhibitor, partial curve] |
| Cc1ccc2nc(C(O)C(O)c3nc4ccc(C)cc4[nH]3)[nH]c2c1 (stereo not drawn) |  | inconclusive: 35.5 µM [inhibitor, single point] |
| CN(C)S(=O)(=O)c1ccc(C(=O)Nc2nc(-c3cc4ccccc4o3)cs2)cc1 |  | inconclusive: 0.794 µM [inhibitor, full curve, poor fit] |
| COc1ccc(C)cc1NC(=O)CSc1nnnn1Cc1ccccc1 | inactive: -7.24% |  |
| O=c1[nH]nc(Cc2ccc(Cl)cc2Cl)c2ccccc12 |  | inconclusive: 20 µM [inhibitor, single point] |
| O=[N+]([O-])c1ccc(NC(=S)NCCc2ccccc2)cc1 |  | inconclusive: 35.5 µM [inhibitor, single point] |
| O=C(CSc1nc2ccccc2n1CCc1ccccc1)NC1CC1 |  | inconclusive: 0.562 µM [activator, full curve, poor fit] |
| CCOC(=O)CSc1ccc(C(=O)Nc2ccc(OC)cc2)cn1 | inactive: 16.1% |  |
| CC1CCCCN1c1ncnc(N)c1[N+](=O)[O-] (stereo not drawn) |  | active: 10 µM |
| CC(C)NC(=O)CSc1c2c(nc3ccccc13)CCCC2 |  | inconclusive: 35.5 µM [inhibitor, single point] |

Some of the entries so far, comma-delimited:
Structure (SMILES),"activity change, negative = inhibition",Potency
COc1ccccc1OCC(=O)c1[nH]c(C)c(C(C)=O)c1C,,"inconclusive: 10 µM [inhibitor, partial curve]"
CCCCN(C)CCCNC(=O)c1cn(CC)c2ccc(S(=O)(=O)N3CCc4ccccc4C3)cc2c1=O,,"inconclusive: 12.6 µM [inhibitor, partial curve]"
Cc1ccc2nc(C(O)C(O)c3nc4ccc(C)cc4[nH]3)[nH]c2c1 (stereo not drawn),,"inconclusive: 35.5 µM [inhibitor, single point]"
CN(C)S(=O)(=O)c1ccc(C(=O)Nc2nc(-c3cc4ccccc4o3)cs2)cc1,,"inconclusive: 0.794 µM [inhibitor, full curve, poor fit]"
COc1ccc(C)cc1NC(=O)CSc1nnnn1Cc1ccccc1,inactive: -7.24%,
